From paper PMC7229820
Results are given in words; binding and its absence hold for the method and conditions named. Binding seen in cells or lysates may run through a third protein. Here binding means that the protein was enriched with, or labelled near, the bait; the list need not be complete. Tags and fused reporters may be left off the sequences shown.

The chains behind the UniProt entries cited, without tags or fusion partners.
UniProt Q3URK3: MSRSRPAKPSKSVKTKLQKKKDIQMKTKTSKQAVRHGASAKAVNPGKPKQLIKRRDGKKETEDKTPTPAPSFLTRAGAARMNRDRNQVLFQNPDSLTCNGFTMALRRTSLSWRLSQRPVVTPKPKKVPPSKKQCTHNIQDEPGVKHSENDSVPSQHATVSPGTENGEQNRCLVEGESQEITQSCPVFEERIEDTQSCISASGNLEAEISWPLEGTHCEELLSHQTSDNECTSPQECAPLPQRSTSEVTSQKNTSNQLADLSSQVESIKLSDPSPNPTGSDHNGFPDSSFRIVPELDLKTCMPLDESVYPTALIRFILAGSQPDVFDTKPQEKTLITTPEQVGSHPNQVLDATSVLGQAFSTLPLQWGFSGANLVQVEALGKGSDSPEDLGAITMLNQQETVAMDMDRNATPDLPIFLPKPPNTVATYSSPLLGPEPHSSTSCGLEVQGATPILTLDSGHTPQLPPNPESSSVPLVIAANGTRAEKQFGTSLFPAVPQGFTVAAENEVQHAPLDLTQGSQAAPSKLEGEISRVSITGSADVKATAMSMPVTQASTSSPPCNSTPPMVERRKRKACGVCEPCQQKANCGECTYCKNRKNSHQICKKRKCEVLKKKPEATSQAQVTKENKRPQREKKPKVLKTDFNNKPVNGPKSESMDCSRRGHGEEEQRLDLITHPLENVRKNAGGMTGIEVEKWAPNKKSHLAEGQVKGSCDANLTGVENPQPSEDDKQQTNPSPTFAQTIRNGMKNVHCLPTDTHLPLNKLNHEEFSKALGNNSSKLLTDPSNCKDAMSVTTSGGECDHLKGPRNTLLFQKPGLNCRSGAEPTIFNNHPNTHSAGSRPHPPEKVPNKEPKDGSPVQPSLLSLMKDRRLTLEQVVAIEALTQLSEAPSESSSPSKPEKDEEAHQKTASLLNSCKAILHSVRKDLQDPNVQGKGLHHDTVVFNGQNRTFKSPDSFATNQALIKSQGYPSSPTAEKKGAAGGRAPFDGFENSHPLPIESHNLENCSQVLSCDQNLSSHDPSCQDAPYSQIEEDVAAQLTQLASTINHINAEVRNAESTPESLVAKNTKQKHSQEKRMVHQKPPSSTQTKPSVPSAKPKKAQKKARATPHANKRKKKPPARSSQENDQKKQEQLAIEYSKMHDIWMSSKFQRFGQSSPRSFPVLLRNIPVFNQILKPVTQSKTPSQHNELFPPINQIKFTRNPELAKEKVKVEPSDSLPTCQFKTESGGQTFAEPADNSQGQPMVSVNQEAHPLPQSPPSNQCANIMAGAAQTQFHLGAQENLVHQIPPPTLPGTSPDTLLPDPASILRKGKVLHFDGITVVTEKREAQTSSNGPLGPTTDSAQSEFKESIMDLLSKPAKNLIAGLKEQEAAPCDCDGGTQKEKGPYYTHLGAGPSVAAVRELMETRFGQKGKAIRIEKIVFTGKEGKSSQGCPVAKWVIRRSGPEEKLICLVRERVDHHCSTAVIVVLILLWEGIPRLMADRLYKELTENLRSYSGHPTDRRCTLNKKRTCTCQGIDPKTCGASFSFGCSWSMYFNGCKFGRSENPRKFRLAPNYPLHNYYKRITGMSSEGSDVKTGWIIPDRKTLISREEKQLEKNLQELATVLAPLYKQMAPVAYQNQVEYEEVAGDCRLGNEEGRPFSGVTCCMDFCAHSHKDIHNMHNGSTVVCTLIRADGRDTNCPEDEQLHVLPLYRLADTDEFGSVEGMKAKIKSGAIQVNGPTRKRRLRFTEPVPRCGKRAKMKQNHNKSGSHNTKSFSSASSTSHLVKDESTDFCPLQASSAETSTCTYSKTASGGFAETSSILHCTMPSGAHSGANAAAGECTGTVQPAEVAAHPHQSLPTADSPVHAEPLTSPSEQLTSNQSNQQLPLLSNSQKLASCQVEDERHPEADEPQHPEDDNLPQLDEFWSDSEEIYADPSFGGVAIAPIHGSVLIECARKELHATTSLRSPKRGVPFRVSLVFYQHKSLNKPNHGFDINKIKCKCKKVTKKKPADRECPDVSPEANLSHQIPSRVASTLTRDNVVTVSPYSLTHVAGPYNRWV

T1: Flag-HA-NONO (UniProt Q99K48)
T1 sequence: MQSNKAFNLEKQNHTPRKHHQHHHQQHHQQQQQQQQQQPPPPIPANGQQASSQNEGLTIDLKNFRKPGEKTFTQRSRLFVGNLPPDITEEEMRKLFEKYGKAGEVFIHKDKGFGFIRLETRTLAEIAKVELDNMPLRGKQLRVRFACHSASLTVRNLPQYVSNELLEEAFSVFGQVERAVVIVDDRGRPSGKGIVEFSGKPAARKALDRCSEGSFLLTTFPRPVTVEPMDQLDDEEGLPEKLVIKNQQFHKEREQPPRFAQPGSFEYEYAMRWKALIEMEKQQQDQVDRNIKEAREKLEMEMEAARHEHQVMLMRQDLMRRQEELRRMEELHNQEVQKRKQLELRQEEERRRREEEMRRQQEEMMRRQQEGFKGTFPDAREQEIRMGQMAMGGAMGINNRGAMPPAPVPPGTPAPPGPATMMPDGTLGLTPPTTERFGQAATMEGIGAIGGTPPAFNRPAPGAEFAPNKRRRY


These molecules were tested against T1, Flag-HA-NONO (assay: affinity purification with mass spectrometry; tandem affinity purification (Flag beads and HA beads) of the NONO complex from nuclear extracts of mESCs stably expressing Flag-HA-Nono; MS/MS).

binding	Molecule
binds	Ten-Eleven Translocation 1 (TET1) (from UniProt Q3URK3 1-2039)
binds	OGT (protein, UniProt Q8CGY8 1-1046) MASSVGNVADSTEPTKRMLSFQGLAELAHREYQAGDFEAAERHCMQLWRQEPDNTGVLLLLSSIHFQCRRLDRSAHFSTLAIKQNPLLAEAYSNLGNVYKERGQLQEAIEHYRHALRLKPDFIDGYINLAAALVAAGDMEGAVQAYVSALQYNPDLYCVRSDLGNLLKALGRLEEAKACYLKAIETQPNFAVAWSNLGCVFNAQGEIWLAIHHFEKAVTLDPNFLDAYINLGNVLKEARIFDRAVAAYLRALSLSPNHAVVHGNLACVYYEQGLIDLAIDTYRRAIELQPHFPDAYCNLANALKEKGSVAEAEDCYNTALRLCPTHADSLNNLANIKREQGNIEEAVRLYRKALEVFPEFAAAHSNLASVLQQQGKLQEALMHYKEAIRISPTFADAYSNMGNTLKEMQDVQGALQCYTRAIQINPAFADAHSNLASIHKDSGNIPEAIASYRTALKLKPDFPDAYCNLAHCLQIVCDWTDYDERMKKLVSIVAEQLEKNRLPSVHPHHSMLYPLSHGFRKAIAERHGNLCLDKINVLHKPPYEHPKDLKLSDGRLRVGYVSSDFGNHPTSHLMQSIPGMHNPDKFEVFCYALSPDDGTNFRVKVMAEANHFIDLSQIPCNGKAADRIHQDGIHILVNMNGYTKGARNELFALRPAPIQAMWLGYPGTSGALFMDYIITDQETSPAEVAEQYSEKLAYMPHTFFIGDHANMFPHLKKKAVIDFKSNGHIYDNRIVLNGIDLKAFLDSLPDVKIVKMKCPDGGDNPDSSNTALNMPVIPMNTIAEAVIEMINRGQIQITINGFSISNGLATTQINNKAATGEEVPRTIIVTTRSQYGLPEDAIVYCNFNQLYKIDPSTLQMWANILKRVPNSVLWLLRFPAVGEPNIQQYAQNMGLPQNRIIFSPVAPKEEHVRRGQLADVCLDTPLCNGHTTGMDVLWAGTPMVTMPGETLASRVAASQLTCLGCLELIAKSRQEYEDIAVKLGTDLEYLKKIRGKVWKQRISSPLFNTKQYTMELERLYLQMWEHYAAGNKPDHMIKPVEVTESA
binds	PSPC1 (protein, UniProt Q8R326 1-523) MMLRGNLKQVRIEKNPARLRALESAAGESEPVAAAAMALTLAGEQAPPPAPSEEHPDEELGFTIDIKSFLKPGEKTYTQRCRLFVGNLPTDITEEDFKRLFERYGEPSEVFINRDRGFGFIRLESRTLAEIAKAELDGTILKSRPLRIRFATHGAALTVKNLSPVVSNELLEQAFSQFGPVEKAVVVVDDRGRATGKGFVEFAAKPPARKALERCGDGAFLLTTTPRPVIVEPMEQFDDEDGLPEKLMQKTQQYHKEREQPPRFAQPGTFEFEYASRWKALDEMEKQQREQVDRNIREAKEKLEAEMEAARHEHQLMLMRQDLMRRQEELRRLEELRNQELQKRKQIQLRHEEEHRRREEEMIRHREQEELRRQQEGGFKPNYMENREQEMRMGDMGPRGAINMGDAFSPAPAGTQGPPPMMGMNMNNRGTIPGPPMGPGPAMGPEGAANMGTPMIPDNGAVHNDRFPQGPPSQMGSPMGNRTGSETPQAPMSGVGPVSGGPGGFGRGSQGGNFEGPNKRRRY
